Assay results taken from PMC5750218 (Nature Communications, 2018).
For some assays here: One purity is given for all peptides; the source may state it once. *: point of attachment. Myristoyl = CCCCCCCCCCCCCC(=O)*

Assay: general procedure: Fmoc solid-phase peptide synthesis; Fmoc-Rink Amide AM polystyrene resin; HypoGel HMBA resin; Fmoc-Cys(Trt) or Fmoc-Lys(Boc) Wang polystyrene resin; HBTU/DIPEA
Conditions: conjugation step, analytical LC/MS using RP-HPLC (Eclipse XDB-Phenyl column)

Compound | final HPLC purity [%]
4-Ph-Bz-GSSKSPSKKKKKKPGDC(SCH 2 CH 2 NH-Vancomycin)-NH 2 | > 95
POB2K-Dab-K-K(Vancomycin)-NHMe | > 95
POB2K-Dap-Dap-K(Vancomycin)-NHMe | > 95
POB2K-Dap-K-K(Vancomycin)-NHMe | > 95
POB2K-K-Dab-K(Vancomycin)-NHMe | > 95
POB2K-K-Dap-K(Vancomycin)-NHMe | > 95
POB2K-K-Orn-K(Vancomycin)-NHMe | > 95
POB2K-KK-Orn(Vancomycin)-NHMe | > 95
POB2K-Orn-K-K(Vancomycin)-NHMe | > 95
POB2K-Orn-Orn-K(Vancomycin)-NHMe | > 95
nC9CO-GSSKSPSKKKKKKPGDC(SCH2CH2NH-Vancomycin)-NH2 | > 95
nC10CO-GSKKK-K-(Vancomycin)-OH | > 95
nC11CO-GSSKSPSKKKKKKPGDC(SCH 2 CH 2 NH-Vancomycin)-NH 2 | > 95
nC13CO-GSKKK-K(Vancomycin)-OH | > 95
nC13CO-GSKKKC(SCH 2 CH 2 NH-Vancomycin)-NH 2 | > 95
nC13CO-GSKKKC(SCH 2 CH 2 NH-Vancomycin)-OH | > 95
nC13CO-GSSKSPSKKKKKKPGDC(SCH 2 CH 2 NH-Vancomycin)-NH 2 | > 95
nC13CO-GSSKSPSKKKPC(SCH 2 CH 2 NH-Vancomycin)-NH 2 | > 95
nC13CO-GSSKSPSKKKPGDC(SCH 2 CH 2 NH-Vancomycin)-NH 2 | > 95
nC15CO-GSSKSPSKKKKKKPGDC(SCH 2 CH 2 NH-Vancomycin)-NH 2 | > 95

Same assay, conditions: whole synthesis, analytical LC/MS using RP-HPLC (Eclipse XDB-Phenyl column)

Compound | final HPLC purity [%]
Myristoyl-GSKKKC-NH2 | > 95
Myristoyl-GSKKKC-OH | > 95
Myristoyl-GSSKSPSKKKKKKPGDC-NH2 | > 95
Myristoyl-GSSKSPSKKKPC-NH2 | > 95
Myristoyl-KKKC-OH – disulphide dimer | > 95

Assay: ITC dimer-monomer dissociation
Assay type: binding
Conditions: no ligand, 25 °C, 0.1 M NaOAc, pH 5.0

Compound | TΔSdim [kcal/mol] | ΔGdim [kcal/mol] | ΔHdim [kcal/mol]
CN[C@H](CC(C)C)C(=O)N[C@H]1C(=O)N[C@@H](CC(N)=O)C(=O)N[C@H]2C(=O)N[C@H]3C(=O)N[C@H](C(=O)N[C@H](C(=O)O)c4cc(O)cc(O)c4-c4cc3ccc4O)[C@H](O)c3ccc(c(Cl)c3)Oc3cc2cc(c3O[C@@H]2O[C@H](CO)[C@@H](O)[C@H](O)[C@H]2O[C@H]2C[C@](C)(N)[C@H](O)[C@H](C)O2)Oc2ccc(cc2Cl)[C@H]1O [Compound 1, Vancomycin] | 1.17 ± 0.17 | -3.92 ± 0.072 | -2.75 ± 0.12

Same assay, conditions: no ligand, 25 °C, 0.1 M NaOAc, pH 5.0, ITC

Compound | Kdim [M⁻¹]
CN[C@H](CC(C)C)C(=O)N[C@H]1C(=O)N[C@@H](CC(N)=O)C(=O)N[C@H]2C(=O)N[C@H]3C(=O)N[C@H](C(=O)N[C@H](C(=O)O)c4cc(O)cc(O)c4-c4cc3ccc4O)[C@H](O)c3ccc(c(Cl)c3)Oc3cc2cc(c3O[C@@H]2O[C@H](CO)[C@@H](O)[C@H](O)[C@H]2O[C@H]2C[C@](C)(N)[C@H](O)[C@H](C)O2)Oc2ccc(cc2Cl)[C@H]1O [Compound 1, Vancomycin] | 750 ± 80
